Laboratory results from PMC7819943, “Rice protein-binding microarrays: a tool to detect cis-acting elements near promoter regions in rice”.
The list shows a part of the results.

Chains of the proteins cited; added tags and fusions are not shown.
UniProt Q0JBA9, entry or part of it: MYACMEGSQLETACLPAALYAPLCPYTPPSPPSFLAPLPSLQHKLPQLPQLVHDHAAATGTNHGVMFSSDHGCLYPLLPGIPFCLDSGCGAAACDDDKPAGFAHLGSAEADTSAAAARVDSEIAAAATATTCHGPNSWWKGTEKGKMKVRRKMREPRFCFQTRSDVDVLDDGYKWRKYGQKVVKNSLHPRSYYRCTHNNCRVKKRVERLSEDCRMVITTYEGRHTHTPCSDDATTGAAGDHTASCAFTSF

Target: OsWRKY34 (Oryza sativa, UniProt Q0JBA9 1-250)
Test: protein-binding microarray (RPBM); PBS, 2% BSA, 51.3 ng/ul salmon testes DNA, 50 uM zinc acetate, 200 nM TF, 25 C, 1 h; high values mean tight binding
Conditions: protein: recombinant; tags: N-terminal polyhistidine and DsRed monomer fusion (pET32a); label: CyDye5-dUTP incorporated in the synthesized complementary strand; 3' TTTTT single-stranded linker to array surface; dsDNA, one strand shown
Procedure, shortened: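 An Axon 4000B scanner gave the binding signal as per-feature fluorescence intensity in arbitrary units. This followed washing of a custom Agilent array that had been incubated for 1 h at 25 °C with 200 nM protein in PBS, 2% BSA, salmon testes DNA and 50 µM zinc acetate. The proteins were transcription factors fused at the N-terminus to polyhistidine and DsRed, expressed in E. coli BL21-CodonPlus and purified on Ni–NTA.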

Sequence	binding signal
GGTACTAGTAGGATTCGTGGGGTTTCGTGACCGTATTAAACGGAGTCACCTAGTGCAG	8130 fluorescence intensity (a.u.)
ACTTGTCGATGTAACATGCATATCAATTACATCTTTGTTTCGGAGTCACCTAGTGCAG	8980 fluorescence intensity (a.u.)
TCATAAAACATGGCTTAGTATTTTGATTTTCTACCCGACACGGAGTCACCTAGTGCAG	8080 fluorescence intensity (a.u.)
TGCCGCTGCCGCCGTGTGCCCGAGCGAGCCCACGCCCACACGGAGTCACCTAGTGCAG	8340 fluorescence intensity (a.u.)
TCTCGTCGCGCGCCGGCGCCTCCTCTCGTCGCGCACCGGCCGGAGTCACCTAGTGCAG	8490 fluorescence intensity (a.u.)
CGGTAACTATTTCAGTTTTTGAAATTATGGTTTGTCTCGTCGGAGTCACCTAGTGCAG	8240 fluorescence intensity (a.u.)
ATCCCTCAAATTCCCGTGCGACACGTCTGCTGCTTCCATCCGGAGTCACCTAGTGCAG	8330 fluorescence intensity (a.u.)
CCACAACTCGTGCAACATCAGCTCACTCGTGTTCCCAACCCGGAGTCACCTAGTGCAG	8120 fluorescence intensity (a.u.)
CATTTTTGTCGGCTCTCTCTTTGTTTTGTTTGTTTTATTTCGGAGTCACCTAGTGCAG	13400 fluorescence intensity (a.u.)
TTGGGGTTTAGTTTTTATATGGCTCACTTATTGGGTCAACCGGAGTCACCTAGTGCAG	15400 fluorescence intensity (a.u.)
GGACAGAGGGAGAGAGCCAAACATAGAGGGGCGGGTTAATCGGAGTCACCTAGTGCAG	12200 fluorescence intensity (a.u.)
GAGAGGAGTGTCACCTCTTCTTCTTCTTCTTCACCTGCTACGGAGTCACCTAGTGCAG	8290 fluorescence intensity (a.u.)
ATCGTCTCTCTCTTCTGTCCCTTATATAAGCTAGCTCCACCGGAGTCACCTAGTGCAG	8900 fluorescence intensity (a.u.)
GGTGGGGTAGAGTCGACGGCGCCGTGGTGGGGCGGAGTTACGGAGTCACCTAGTGCAG	12400 fluorescence intensity (a.u.)
TGTTCTCCATGCATGGCTGCACCTGAACTTGTCCTGCACTCGGAGTCACCTAGTGCAG	8190 fluorescence intensity (a.u.)
ACTGCACTTCCTAGCTTAGCTGTTCATCTCTCACCTGACTCGGAGTCACCTAGTGCAG	9570 fluorescence intensity (a.u.)
GAACATGTTGTTCAGTTGGCCTCGTTTTCTCACCTTTGCTCGGAGTCACCTAGTGCAG	12500 fluorescence intensity (a.u.)
TGTGTTCGTTGTTCGCGCGTCTATATAAGCGGTGCCGCTCCGGAGTCACCTAGTGCAG	10800 fluorescence intensity (a.u.)
ACTGTTAGTTGCATTCGAGTTGTCATCCATATTTTTAACACGGAGTCACCTAGTGCAG	9940 fluorescence intensity (a.u.)
TATTTCTGTATTTCCTATTGCTGTATTTCGAAGGAGTCGACGGAGTCACCTAGTGCAG	8300 fluorescence intensity (a.u.)
TACAGTTCTGTGGGTGGGGACAGCTTCCTAGATATCCGGCCGGAGTCACCTAGTGCAG	16000 fluorescence intensity (a.u.)

Sequence	binding signal
GTATTAAACCAAACAAGCCCTACATTTTTTTATGTACATTCGGAGTCACCTAGTGCAG	8250 fluorescence intensity (a.u.)
GTTTCTACTCTGTTTCACACTAACTGTTCTAGATCATGACCGGAGTCACCTAGTGCAG	11800 fluorescence intensity (a.u.)
TCCATCACATCACATCACAGCCTCGTTCGTTCGTCGCTGACGGAGTCACCTAGTGCAG	10600 fluorescence intensity (a.u.)
TGTCCGCCAACCTCCGCGTCGTGCCGCTCGACCTCCCGGCCGGAGTCACCTAGTGCAG	8310 fluorescence intensity (a.u.)
TTTTTATTACATTGTATATACTACTCCCTCTGTCCCATAACGGAGTCACCTAGTGCAG	8990 fluorescence intensity (a.u.)
GTGCGGTTTTTCTCCTGGTTCTTTTGTGTACTTTATACCACGGAGTCACCTAGTGCAG	18200 fluorescence intensity (a.u.)
GATTTGAGTTTTCCTGTTCATCTTTTCGTTAAGATAAAAACGGAGTCACCTAGTGCAG	9210 fluorescence intensity (a.u.)
CTTATTGTTTTGATTATGCTTATGTGAATCGCTTATTAACCGGAGTCACCTAGTGCAG	8660 fluorescence intensity (a.u.)
GGGCCCCACCATTTTAAAATTATCTTTTTTATGTAACTGACGGAGTCACCTAGTGCAG	9330 fluorescence intensity (a.u.)
TAGTTCTTCCATGCTTTGCTTGCTCTCCCTTGTGAACACACGGAGTCACCTAGTGCAG	8600 fluorescence intensity (a.u.)
CTTCTTCTTCTTCTTCTTCTTTTCTTTTTTATATCAAATCCGGAGTCACCTAGTGCAG	9520 fluorescence intensity (a.u.)
GTTCGATATTTGAAATTTCCCCATCCGAAATTTTCTCTTCCGGAGTCACCTAGTGCAG	9230 fluorescence intensity (a.u.)
ATGCCCATTTTGTAGCGTCGATTCTTGTTTCTGCTTGATTCGGAGTCACCTAGTGCAG	10300 fluorescence intensity (a.u.)
CACCAATAAGTAATGTGAGCTGGGTTTCATTTTTGTACTTCGGAGTCACCTAGTGCAG	8450 fluorescence intensity (a.u.)
TCAGAGCCTGTTTTTGTTGTTGTTCTCACTTTTTGCTTCACGGAGTCACCTAGTGCAG	9030 fluorescence intensity (a.u.)
ATTATTTTTTCAGTGATAGACGGTGTACCCGCCACCGACACGGAGTCACCTAGTGCAG	8110 fluorescence intensity (a.u.)
CAACTACCTCCTTTTTCCGTGAGTCCAATTTCTAAATTACCGGAGTCACCTAGTGCAG	9370 fluorescence intensity (a.u.)
TCATGAGCTACTGTCCTCATCACGGTCGCCGTCGTCTTCCCGGAGTCACCTAGTGCAG	11800 fluorescence intensity (a.u.)
TAAACCACTTTCTCCGGTCAAACACTCCGTCCCCACCTATCGGAGTCACCTAGTGCAG	9870 fluorescence intensity (a.u.)
TTTTTTTTCCCTTCTTCTCCGCGCGCGTGTTCTCCTCGATCGGAGTCACCTAGTGCAG	8860 fluorescence intensity (a.u.)
TGTTGGCTCTTCACATGTACAATGTGACATCTCCTTTCACCGGAGTCACCTAGTGCAG	8680 fluorescence intensity (a.u.)

Three successive entries from above, quoted:
Sequence	binding signal
GTATTAAACCAAACAAGCCCTACATTTTTTTATGTACATTCGGAGTCACCTAGTGCAG	8250 fluorescence intensity (a.u.)
GTTTCTACTCTGTTTCACACTAACTGTTCTAGATCATGACCGGAGTCACCTAGTGCAG	11800 fluorescence intensity (a.u.)
TCCATCACATCACATCACAGCCTCGTTCGTTCGTCGCTGACGGAGTCACCTAGTGCAG	10600 fluorescence intensity (a.u.)
